# Results reported in article PMC9638919, “DAZL regulates proliferation of human primordial germ cells by direct binding to precursor miRNAs and enhances DICER processing activity”.
# The chains behind the UniProt entries cited, without tags or fusion partners.
# UniProt Q9UPY3: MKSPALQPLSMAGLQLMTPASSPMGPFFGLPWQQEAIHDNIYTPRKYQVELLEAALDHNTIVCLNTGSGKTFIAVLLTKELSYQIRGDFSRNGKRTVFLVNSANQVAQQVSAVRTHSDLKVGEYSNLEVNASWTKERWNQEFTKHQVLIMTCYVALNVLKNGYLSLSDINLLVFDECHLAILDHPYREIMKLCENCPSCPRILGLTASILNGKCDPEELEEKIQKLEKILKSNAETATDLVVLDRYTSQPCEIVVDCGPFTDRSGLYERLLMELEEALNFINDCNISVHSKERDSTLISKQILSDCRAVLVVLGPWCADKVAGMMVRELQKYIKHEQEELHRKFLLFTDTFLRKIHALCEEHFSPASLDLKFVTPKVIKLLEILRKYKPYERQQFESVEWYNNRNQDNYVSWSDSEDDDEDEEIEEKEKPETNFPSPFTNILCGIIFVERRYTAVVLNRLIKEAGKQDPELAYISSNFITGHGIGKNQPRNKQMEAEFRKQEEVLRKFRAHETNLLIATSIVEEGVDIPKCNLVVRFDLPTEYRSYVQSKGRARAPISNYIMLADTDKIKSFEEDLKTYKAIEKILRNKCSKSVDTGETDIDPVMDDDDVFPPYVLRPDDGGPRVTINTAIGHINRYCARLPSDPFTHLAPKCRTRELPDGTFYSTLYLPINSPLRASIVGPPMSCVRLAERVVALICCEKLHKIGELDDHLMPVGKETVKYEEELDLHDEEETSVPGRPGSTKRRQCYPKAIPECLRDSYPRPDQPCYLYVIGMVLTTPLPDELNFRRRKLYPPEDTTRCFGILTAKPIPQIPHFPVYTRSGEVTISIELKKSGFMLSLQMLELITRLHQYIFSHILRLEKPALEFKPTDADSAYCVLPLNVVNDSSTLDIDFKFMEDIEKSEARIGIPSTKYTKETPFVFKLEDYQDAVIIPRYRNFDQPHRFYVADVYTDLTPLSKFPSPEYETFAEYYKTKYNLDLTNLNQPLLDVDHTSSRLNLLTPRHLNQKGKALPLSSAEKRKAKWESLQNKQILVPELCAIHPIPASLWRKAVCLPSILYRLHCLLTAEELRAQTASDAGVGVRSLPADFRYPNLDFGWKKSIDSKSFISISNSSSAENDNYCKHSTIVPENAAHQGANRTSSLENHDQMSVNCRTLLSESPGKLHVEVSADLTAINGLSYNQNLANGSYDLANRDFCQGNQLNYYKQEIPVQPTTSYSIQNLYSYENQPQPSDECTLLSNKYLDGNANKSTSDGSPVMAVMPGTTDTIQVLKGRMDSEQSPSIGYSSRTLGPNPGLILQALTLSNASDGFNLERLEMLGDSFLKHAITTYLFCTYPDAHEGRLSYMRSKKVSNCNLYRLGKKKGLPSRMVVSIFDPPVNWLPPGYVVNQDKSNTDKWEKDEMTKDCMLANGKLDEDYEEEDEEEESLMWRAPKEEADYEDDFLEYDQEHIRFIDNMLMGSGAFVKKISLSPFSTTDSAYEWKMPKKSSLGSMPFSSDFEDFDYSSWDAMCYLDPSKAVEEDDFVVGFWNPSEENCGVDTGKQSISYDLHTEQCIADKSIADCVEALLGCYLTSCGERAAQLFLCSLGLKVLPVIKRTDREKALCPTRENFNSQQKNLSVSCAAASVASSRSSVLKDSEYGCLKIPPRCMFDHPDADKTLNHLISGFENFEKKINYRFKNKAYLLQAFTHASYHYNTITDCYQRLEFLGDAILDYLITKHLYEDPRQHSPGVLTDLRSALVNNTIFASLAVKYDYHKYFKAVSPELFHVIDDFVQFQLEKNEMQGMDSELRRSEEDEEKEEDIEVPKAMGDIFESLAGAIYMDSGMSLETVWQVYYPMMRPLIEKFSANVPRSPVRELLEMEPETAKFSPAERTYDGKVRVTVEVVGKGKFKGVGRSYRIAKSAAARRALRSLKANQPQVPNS
# Results are given in words; binding and its absence hold for the method and conditions named. In cells and extracts the contact can be indirect. Some binding calls cover weakened binding; strength is not graded here.
# B1: DAZL (overexpressed in 293FT cells) (protein, UniProt Q92904 1-295)
# chain: MSTANPETPNSTISREASTQSSSAATSQGYILPEGKIMPNTVFVGGIDVRMDETEIRSFFARYGSVKEVKIITDRTGVSKGYGFVSFFNDVDVQKIVESQINFHGKKLKLGPAIRKQNLCAYHVQPRPLVFNHPPPPQFQNVWTNPNTETYMQPTTTMNPITQYVQAYPTYPNSPVQVITGYQLPVYNYQMPPQWPVGEQRSYVVPPAYSAVNYHCNEVDPGAEVVPNECSVHEATPPSGNGPQKKSVDRSIQTVVSCLFNPENRLRNSVVTQDDYFKDKRVHHFRRSRAMLKSV
# How the values were obtained:
# [1] = target: T1, DAZL (overexpressed in 293FT cells) (human) (UniProt Q92904); assay: co-IP; whole-cell lysates of 293FT cells transfected with oeDAZL plasmid; extract treated with 80 ug/ml RNase A and 200 U/ml RNase T1 for 15 min at 37°C before IP; IP with DICER antibodies or DAZL antibodies, Dynabeads Protein G, 4°C; washed with PBS and 0.02% Tween-20; western blotting; normal rabbit IgG as negative control
# T1 sequence: B1 chain
# [2] = target: DICER (endogenous in 293FT cells) (human (endogenous in 293FT)) (UniProt Q9UPY3); assay: as above
Molecule,binding [1],binding [2]
DICER (endogenous in 293FT cells) (from UniProt Q9UPY3 1-1922) (enzyme),binds,
B1,,binds
